This passage reports binding results from patent US20070248607A1, “NEGATIVE IMMUNOMODULATION OF IMMUNE RESPONSES BY NKG2D-POSITIVE CD4+ CELLS” (priority 2005, published 2007).

Test [1] has as its target T1, ERP5 on the cell surface of tumor cells (U266, Hela, A375) (UniProt Q15084 20-440, limits assumed).
T1 construct: whole, on cells; Endogenous protein of tumor cell lines; also called disulfide isomerase-related protein P5; surface ERP5
T1 sequence (looked up): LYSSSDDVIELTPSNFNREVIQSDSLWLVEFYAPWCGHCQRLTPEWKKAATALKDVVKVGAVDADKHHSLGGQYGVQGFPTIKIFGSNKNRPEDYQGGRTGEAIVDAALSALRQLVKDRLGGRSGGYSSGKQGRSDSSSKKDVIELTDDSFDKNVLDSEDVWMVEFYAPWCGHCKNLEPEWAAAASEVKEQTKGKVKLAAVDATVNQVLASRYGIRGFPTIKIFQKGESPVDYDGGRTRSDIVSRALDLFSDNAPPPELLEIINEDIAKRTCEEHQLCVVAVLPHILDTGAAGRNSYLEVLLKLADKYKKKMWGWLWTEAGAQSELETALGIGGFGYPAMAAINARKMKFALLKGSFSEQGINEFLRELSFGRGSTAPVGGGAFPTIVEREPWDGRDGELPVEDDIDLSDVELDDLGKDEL
Description: MICA bead purification from surface-biotinylated cells, immunoblot. For orientation: A western blot detects proteins with antibodies after separation by electrophoresis.

For test [2], the target named is T2, recombinant soluble MICA (rsMICA), unglycosylated, produced in bacteria; ectodomain-only MICA (human) (UniProt Q29983).
T2 sequence: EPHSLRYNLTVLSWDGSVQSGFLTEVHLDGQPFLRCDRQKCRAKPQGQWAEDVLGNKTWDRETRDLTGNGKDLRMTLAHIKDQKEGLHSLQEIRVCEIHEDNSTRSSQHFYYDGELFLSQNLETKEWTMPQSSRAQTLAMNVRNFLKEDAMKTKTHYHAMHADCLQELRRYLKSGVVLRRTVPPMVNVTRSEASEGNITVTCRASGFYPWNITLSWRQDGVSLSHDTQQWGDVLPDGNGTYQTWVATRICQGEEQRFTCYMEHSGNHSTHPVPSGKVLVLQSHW
Description: incubation of purified proteins, non-reducing SDS-PAGE; resolved by β-ME.

Test [3] addresses T2, recombinant soluble MICA (rsMICA), unglycosylated, produced in bacteria; ectodomain-only MICA (human). Description: incubation of purified proteins, non-reducing SDS-PAGE.

No constants are given. Whether binding was seen depends on the method and setting. Some entries that bind do so weakly or less than the wild type.

B1: MICA-conjugated sepharose beads (ligand)
chain: EPHSLRYNLTVLSWDGSVQSGFLTEVHLDGQPFLRCDRQKCRAKPQGQWAEDVLGNKTWDRETRDLTGNGKDLRMTLAHIKDQKEGLHSLQEIRVCEIHEDNSTRSSQHFYYDGELFLSQNLETKEWTMPQSSRAQTLAMNVRNFLKEDAMKTKTHYHAMHADCLQELRRYLKSGVVLRRTVPPMVNVTRSEASEGNITVTCRASGFYPWNITLSWRQDGVSLSHDTQQWGDVLPDGNGTYQTWVATRICQGEEQRFTCYMEHSGNHSTHPVPSGK
modifications: coupled to sepharose beads
In the case of B1, the binding entry in test [1] is “binds”.

B2: ERP5 fragment 1-118 C39S active site mutant (enzyme, UniProt Q15084 20-137, looked up)
chain: LYSSSDDVIELTPSNFNREVIQSDSLWLVEFYAPWCGHSQRLTPEWKKAATALKDVVKVGAVDADKHHSLGGQYGVQGFPTIKIFGSNKNRPEDYQGGRTGEAIVDAALSALRQLVKD
notes: Position 39 counts on the mature protein; not shown: N-terminal hexahistidine tract
Take B2: the binding entry in test [2] and in test [3] was “binds” throughout.
